According to article doi:10.1101/2022.09.25.509378:
No constants are given. Whether binding was seen depends on the method and setting. Some binding calls cover weakened binding; strength is not graded here.

Target: T1, bacteriophage λ terminase large subunit (TerL) (bacteriophage λ) (UniProt P03708)
T1 sequence: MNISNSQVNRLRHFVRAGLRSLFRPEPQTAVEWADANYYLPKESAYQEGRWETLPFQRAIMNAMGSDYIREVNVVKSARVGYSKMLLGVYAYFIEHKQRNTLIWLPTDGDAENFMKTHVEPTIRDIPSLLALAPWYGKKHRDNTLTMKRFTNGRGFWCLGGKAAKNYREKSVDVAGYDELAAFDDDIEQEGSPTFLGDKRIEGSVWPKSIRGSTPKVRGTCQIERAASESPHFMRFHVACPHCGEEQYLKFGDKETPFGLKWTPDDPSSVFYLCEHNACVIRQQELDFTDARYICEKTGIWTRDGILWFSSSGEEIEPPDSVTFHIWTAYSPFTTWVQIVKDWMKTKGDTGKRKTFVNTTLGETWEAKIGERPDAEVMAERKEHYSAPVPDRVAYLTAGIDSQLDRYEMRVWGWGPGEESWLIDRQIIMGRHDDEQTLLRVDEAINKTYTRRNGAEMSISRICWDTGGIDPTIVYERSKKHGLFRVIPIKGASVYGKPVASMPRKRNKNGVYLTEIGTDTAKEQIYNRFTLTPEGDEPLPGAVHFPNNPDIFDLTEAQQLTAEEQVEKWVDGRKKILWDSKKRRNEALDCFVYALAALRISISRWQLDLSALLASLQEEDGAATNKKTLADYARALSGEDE
Test: native MS

B1: bacteriophage λ terminase small subunit (TerS) (protein, UniProt P03707 1-181)
chain: MEVNKKQLADIFGASIRTIQNWQEQGMPVLRGGGKGNEVLYDSAAVIKWYAERDAEIENEKLRREVEELRQASEADLQPGTIEYERHRLTRAQADAQELKNARDSAEVVETAFCTFVLSRIAGEIASILDGLPLSVQRRFPELENRHVDFLKRDIIKAMNKAAALDELIPGLLSEYIEQSG
binding: binds
